Measured values reported in PMC7819943, “Rice protein-binding microarrays: a tool to detect cis-acting elements near promoter regions in rice”.
This is one part of the list.

Amino acid sequences for entries named in this document (tags omitted).
UniProt Q0JBA9, entry or part of it: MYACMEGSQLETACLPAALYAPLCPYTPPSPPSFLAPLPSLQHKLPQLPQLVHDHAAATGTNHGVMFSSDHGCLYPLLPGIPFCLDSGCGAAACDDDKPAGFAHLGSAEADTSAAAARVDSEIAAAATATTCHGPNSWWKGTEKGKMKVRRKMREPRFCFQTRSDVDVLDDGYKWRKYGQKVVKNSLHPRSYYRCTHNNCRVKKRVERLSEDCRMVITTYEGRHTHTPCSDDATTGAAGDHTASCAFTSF

biological target: OsWRKY34 (Oryza sativa, UniProt Q0JBA9 1-250); experiment: protein-binding microarray (RPBM); PBS, 2% BSA, 51.3 ng/ul salmon testes DNA, 50 uM zinc acetate, 200 nM TF, 25 C, 1 h; high values mean tight binding; conditions: protein: recombinant; tags: N-terminal polyhistidine and DsRed monomer fusion (pET32a); label: CyDye5-dUTP incorporated in the synthesized complementary strand; 3' TTTTT single-stranded linker to array surface; dsDNA, one strand shown
Procedure, shortened: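 The binding signal is fluorescence intensity per feature, in arbitrary units, read on an Axon 4000B scanner. Polyhistidine- and DsRed-tagged transcription factors (N-terminal fusions) from E. coli BL21-CodonPlus were purified on Ni–NTA and applied at 200 nM for 1 h at 25 °C to a double-stranded, BSA-blocked custom Agilent array in buffer with 50 µM zinc acetate.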

Row | Sequence | binding signal
1 | GCTACATATATTCTTCGGCTCGATCAAACATACATCCTTCCGGAGTCACCTAGTGCAG | 10100 fluorescence intensity (a.u.)
2 | ACATTTATCGTTTTATAAAATTTTCTCTCGTATATATTCCCGGAGTCACCTAGTGCAG | 9140 fluorescence intensity (a.u.)
3 | ATTTTACTCTTTTGACTATATTGGTTCGGTTGAAGTTTTACGGAGTCACCTAGTGCAG | 23100 fluorescence intensity (a.u.)
4 | ATATATATATATATATCCATATTCCTTCCCCTCGCACTGTCGGAGTCACCTAGTGCAG | 10100 fluorescence intensity (a.u.)
5 | TCTGATGGGCGCTGGCTATCAATGTATGTCACTGTGTTGTCGGAGTCACCTAGTGCAG | 8230 fluorescence intensity (a.u.)
6 | CCACCTTGCTCAACGCGTTGTCGCTGTCCTGGTCGCCTTCCGGAGTCACCTAGTGCAG | 8720 fluorescence intensity (a.u.)
7 | ACCTCCTCTTCCCATCTCGCCTCACGCCATTTTTCATTGCCGGAGTCACCTAGTGCAG | 11200 fluorescence intensity (a.u.)
8 | AGGACCACGTATTACCCGTACAAATTAGCAACCGCGCGCGCGGAGTCACCTAGTGCAG | 9030 fluorescence intensity (a.u.)
9 | CGCCGTGTCCCTGCTCCAGAACCGCGCCCACGTCGTCTTCCGGAGTCACCTAGTGCAG | 10500 fluorescence intensity (a.u.)
10 | CCGGCCGCCGCCTCTGACCTTACGTATAATTTTTCTTTCCCGGAGTCACCTAGTGCAG | 11400 fluorescence intensity (a.u.)
11 | TTTGTGTGGAGGGTGGTTTGTAATATCTCTTCCACCCCTACGGAGTCACCTAGTGCAG | 8250 fluorescence intensity (a.u.)
12 | CATTACTCTACTCCACTGATTATTCTTGTCTTGTTAGTATCGGAGTCACCTAGTGCAG | 9800 fluorescence intensity (a.u.)
13 | CTCCCTGTGGGCTTTCTACCTCATCCTAGCAATCTCCATGCGGAGTCACCTAGTGCAG | 8620 fluorescence intensity (a.u.)
14 | GCATGGTGGCGGCGGGAAGGAGGAGTGGGGCGGCGGGTGCCGGAGTCACCTAGTGCAG | 16100 fluorescence intensity (a.u.)
15 | GGTGGCGCGACTTCTTCCTCTTTCTCTTTTGCTTTCCTGGCGGAGTCACCTAGTGCAG | 8760 fluorescence intensity (a.u.)
16 | GCTGACCATTGATTGATTCCCATAATTACCTAGAGAACTTCGGAGTCACCTAGTGCAG | 8300 fluorescence intensity (a.u.)
17 | CTTCACACACGCCATAACCCATATCTTACACAGACATGTGCGGAGTCACCTAGTGCAG | 8760 fluorescence intensity (a.u.)
18 | GGCGCTTCTAGGGTTTGGTGGGGTTCGGGCGGGCGCGCCGCGGAGTCACCTAGTGCAG | 15600 fluorescence intensity (a.u.)
19 | ACCTTAATTCATCCCAGCGCACACATTCAGGCATTTGTTTCGGAGTCACCTAGTGCAG | 8460 fluorescence intensity (a.u.)
20 | ATTCGCGGCTTTAATCTCATTTGTATACATGGATTGACTACGGAGTCACCTAGTGCAG | 9310 fluorescence intensity (a.u.)
21 | GTCCGTCTGCTTGTATTCGAAACCCCAACTTATCTTGTGTCGGAGTCACCTAGTGCAG | 10400 fluorescence intensity (a.u.)
22 | CTCTCTCCGTGCCTCGCTAGCTTTTCATGGGGACCCATAGCGGAGTCACCTAGTGCAG | 9780 fluorescence intensity (a.u.)
23 | CTTCTGTTCTGTACAGTTTCTCTCACTTCTTCTATAATATCGGAGTCACCTAGTGCAG | 10400 fluorescence intensity (a.u.)
24 | GCGCCCATCTGCTTATGGTCCACACGCGCCGCGGCGCCAGCGGAGTCACCTAGTGCAG | 9380 fluorescence intensity (a.u.)
25 | TCGCTATCTAATCAACCACTATTCCTTTCTTTCTTCGCTTCGGAGTCACCTAGTGCAG | 10900 fluorescence intensity (a.u.)
26 | CCATACCCGCGAAAAACGCTATTCAATTAGCCTATATAATCGGAGTCACCTAGTGCAG | 10400 fluorescence intensity (a.u.)
27 | GTGTATTTGTGAGGTTTTTTTTGACCGGTTTTCCTTCAAACGGAGTCACCTAGTGCAG | 9470 fluorescence intensity (a.u.)

Row | Sequence | binding signal
28 | TGCACACTCCAGCCGATGCCTTCGCAGCCGACGCATACTCCGGAGTCACCTAGTGCAG | 10000 fluorescence intensity (a.u.)
29 | TTATGTGTGCGTGGGCCATTAATTTACACTTGCATGTCAGCGGAGTCACCTAGTGCAG | 9290 fluorescence intensity (a.u.)
30 | TTCATTTTCTTTAACTCTTGGTTCTGTATATATCTCTTTCCGGAGTCACCTAGTGCAG | 8880 fluorescence intensity (a.u.)
31 | GTCACTACTACACTTCATTACGGTCCGCTTACTCTCCTCTCGGAGTCACCTAGTGCAG | 8260 fluorescence intensity (a.u.)
32 | TTTCTATATGGACTCTGCTTTTTCTTTTTCTCTGATTAATCGGAGTCACCTAGTGCAG | 10400 fluorescence intensity (a.u.)
33 | TGTGTGCCTGTTGTCTCATTTGATCTGCCATTTCAGCGCACGGAGTCACCTAGTGCAG | 10700 fluorescence intensity (a.u.)
34 | ATGTGTCGCCGCGTCATCGTGCCTATCTGATCTTTCTTCACGGAGTCACCTAGTGCAG | 11100 fluorescence intensity (a.u.)
35 | CATCTCCGCCTTCGTGTTCCTCTTCTTCTCTCCTCCTCCCCGGAGTCACCTAGTGCAG | 9050 fluorescence intensity (a.u.)
36 | CACCCATCTACTCTGTCTAATCGAATCAACATGTTTTCATCGGAGTCACCTAGTGCAG | 8440 fluorescence intensity (a.u.)
37 | CTCTCTCTCTCTATCTTCACCTCGCATCGTTGGAGATATGCGGAGTCACCTAGTGCAG | 9580 fluorescence intensity (a.u.)
38 | CCCGATCAACCACTCGCCATCCGTTTGTTTGGCGCCGAATCGGAGTCACCTAGTGCAG | 8940 fluorescence intensity (a.u.)
39 | CGCCGATCCGGTCCATACTCGCTCCGTACGATCGTACCTCCGGAGTCACCTAGTGCAG | 10400 fluorescence intensity (a.u.)
40 | AAGAGGTGAGAGTGGGAGGTGGTGGGGTTTATAACCGACGCGGAGTCACCTAGTGCAG | 10100 fluorescence intensity (a.u.)
41 | CTCCAAGTCAATTTCTAATACAGTTGTACCCTTTCCTTAACGGAGTCACCTAGTGCAG | 8100 fluorescence intensity (a.u.)
42 | TACCACCACTCGTCGTCCCGTCGTCCCTTGCAGCTTTGCTCGGAGTCACCTAGTGCAG | 10800 fluorescence intensity (a.u.)
43 | GGTGCTTGTTTAATCAAAGCTTGCTATTTGGTACTTTTTTCGGAGTCACCTAGTGCAG | 8940 fluorescence intensity (a.u.)
44 | CCTCCCGCCGCCTCTCCGCCCGTCCACCGCGCCGCCGCCGCGGAGTCACCTAGTGCAG | 8070 fluorescence intensity (a.u.)
45 | TACGTTGGGCTATCCGAAATCTCATCTCTCGCCCAATCCGCGGAGTCACCTAGTGCAG | 11100 fluorescence intensity (a.u.)
46 | ATCATTGTCTGACATTTCTATGGCCCGGTCACTGTTCCATCGGAGTCACCTAGTGCAG | 9500 fluorescence intensity (a.u.)
47 | AACGACAGAGGTCGCACATCTCGCATATTCTTGTTCTTTTCGGAGTCACCTAGTGCAG | 8830 fluorescence intensity (a.u.)
48 | CGCCCCTTGCCGCTTGCCGCCTCGCCCGCTCGAGCTCATCCGGAGTCACCTAGTGCAG | 8390 fluorescence intensity (a.u.)
49 | AAGCGTAACATCCTACTCCTGTATTTGGTTGATTCTGTGACGGAGTCACCTAGTGCAG | 8950 fluorescence intensity (a.u.)
50 | CCGTCTCCACCTCCACCGCGCCGGCGCCGTCCTTCACCGCCGGAGTCACCTAGTGCAG | 8530 fluorescence intensity (a.u.)
51 | TGCTTGGATTGAGGGATTGATTGATTTCTTCTCTGAACTTCGGAGTCACCTAGTGCAG | 10400 fluorescence intensity (a.u.)
52 | TGGTCCTGTTTATTTTAACACCTTTCCCGATTTTTCTGTACGGAGTCACCTAGTGCAG | 9800 fluorescence intensity (a.u.)
53 | CCTACCACCCATACACAATTGTCTTTCTTTCAACTTGCCGCGGAGTCACCTAGTGCAG | 9840 fluorescence intensity (a.u.)
54 | TTTGCTCCACACCACACAACACACATTGTACGGCGTTGCTCGGAGTCACCTAGTGCAG | 8210 fluorescence intensity (a.u.)

Single values from the list:
ACATTTATCGTTTTATAAAATTTTCTCTCGTATATATTCCCGGAGTCACCTAGTGCAG | binding signal: 9140 fluorescence intensity (a.u.)
AAGAGGTGAGAGTGGGAGGTGGTGGGGTTTATAACCGACGCGGAGTCACCTAGTGCAG | binding signal: 10100 fluorescence intensity (a.u.)
